PubChem BioAssay AID1259254 | NCATS, 2017

- Test: 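Genome-wide screen for genes that prevent DNA re-replication in cancer cells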 (primary screen)
- Cells: human HCT116 colorectal cancer cells
- Reagents: single siRNA against human genes
- Duration: 3 days
- Measured: 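Imaged Hoechst DNA stain sorts each cell into a cycle phase by DNA amount; per plate, G2 fraction set to 0% for non-targeting and 100% for GMNN siRNA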
- Reading the numbers: G2 robust z-score and G2 cells, % of GMNN control: higher = more G2 cells, more excess DNA replication
- Hit rule: 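Active siRNAs have a G2 robust z of 5 or more median absolute deviations over the median, which in these data means about 38% or higher of GMNN control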
The whole screen tested about 59,000 reagents; below is a part drawn at random. About 1,550 of them (2.6%) count as active. 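G2 share is only a proxy for re-replication; each gene was hit by three separate siRNAs, and active genes were retested.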 Unmarked entries are inactive. The numbers tell different reagents against one gene apart. Further read-outs or replicates are left out here. Not stated in the record: the amount of reagent.

RECQL4 #1 gave G2 robust z-score 0.14; G2 cells, % of GMNN control 3.95.
After knock-down of RECQL4 #2 the results were G2 robust z-score 0.117; G2 cells, % of GMNN control 3.79.
RECQL4 #3 showed G2 robust z-score 0.0486; G2 cells, % of GMNN control 3.31.
PCDHB2 #1 gave G2 robust z-score 0.154; G2 cells, % of GMNN control 4.05.
PCDHB2 #2 scored G2 robust z-score -1.33; G2 cells, % of GMNN control -6.42.
Silencing of PCDHB2 #3 gave: G2 robust z-score 0.121; G2 cells, % of GMNN control 3.82.
Against SLC35E1 #1 the deposit lists G2 robust z-score -0.204; G2 cells, % of GMNN control 1.53.
After knock-down of SLC35E1 #2 the results were G2 robust z-score 0.828; G2 cells, % of GMNN control 8.79.
Against SLC35E1 #3, the entry reads G2 robust z-score -0.316; G2 cells, % of GMNN control 0.745.

Reprinted from the entries so far, 4 entries:
PCDHB2 #2: G2 robust z-score = -1.33; G2 cells, % of GMNN control = -6.42
PCDHB2 #3: G2 robust z-score = 0.121; G2 cells, % of GMNN control = 3.82
SLC35E1 #1: G2 robust z-score = -0.204; G2 cells, % of GMNN control = 1.53
SLC35E1 #2: G2 robust z-score = 0.828; G2 cells, % of GMNN control = 8.79

The results go on:
CXADR #1 scored G2 robust z-score -0.609; G2 cells, % of GMNN control -1.32.
For CXADR #2 the deposit lists G2 robust z-score 1.09; G2 cells, % of GMNN control 10.7.
CXADR #3 gave G2 robust z-score -0.323; G2 cells, % of GMNN control 0.697.
With knock-down of BTN2A3P #1, the screen gave G2 robust z-score -0.0452; G2 cells, % of GMNN control 2.65.
Depletion of BTN2A3P #2 came out at: G2 robust z-score 2.28; G2 cells, % of GMNN control 19.
Depletion of BTN2A3P #3 resulted in: G2 robust z-score -0.993; G2 cells, % of GMNN control -4.02.
RFT1 #1 scored G2 robust z-score -0.0108; G2 cells, % of GMNN control 2.89.
Against RFT1 #2, the values are G2 robust z-score -0.35; G2 cells, % of GMNN control 0.504.
RFT1 #3 gave G2 robust z-score 2.34; G2 cells, % of GMNN control 19.4.
For CDC37L1 #1, the values are G2 robust z-score 0.176; G2 cells, % of GMNN control 4.21.
Depletion of CDC37L1 #2 resulted in: G2 robust z-score -0.0549; G2 cells, % of GMNN control 2.58.
Depletion of CDC37L1 #3 gave: G2 robust z-score 0.784; G2 cells, % of GMNN control 8.48.
INCA1 #1 showed G2 robust z-score 5.34 (active); G2 cells, % of GMNN control 40.5.
For INCA1 #2, the values are G2 robust z-score -0.325; G2 cells, % of GMNN control 0.679.
For INCA1 #3, the entry reads G2 robust z-score 1.04; G2 cells, % of GMNN control 10.3.
